Laboratory results taken from doi:10.1101/2022.04.27.489770.
Like-named read-outs stand apart in the source and are kept apart here. These are yes or no findings as the source states them, for the method shown. Binding seen in cells or lysates may run through a third protein. Some binding calls cover weakened binding; strength is not graded here. Tags and fused reporters may be left off the sequences shown. Values belong to the molecule of their own block, whether it stands above or below them.

Protein sequences, listed by entry. Tags and fused reporters are not part of them.
UniProt P29469: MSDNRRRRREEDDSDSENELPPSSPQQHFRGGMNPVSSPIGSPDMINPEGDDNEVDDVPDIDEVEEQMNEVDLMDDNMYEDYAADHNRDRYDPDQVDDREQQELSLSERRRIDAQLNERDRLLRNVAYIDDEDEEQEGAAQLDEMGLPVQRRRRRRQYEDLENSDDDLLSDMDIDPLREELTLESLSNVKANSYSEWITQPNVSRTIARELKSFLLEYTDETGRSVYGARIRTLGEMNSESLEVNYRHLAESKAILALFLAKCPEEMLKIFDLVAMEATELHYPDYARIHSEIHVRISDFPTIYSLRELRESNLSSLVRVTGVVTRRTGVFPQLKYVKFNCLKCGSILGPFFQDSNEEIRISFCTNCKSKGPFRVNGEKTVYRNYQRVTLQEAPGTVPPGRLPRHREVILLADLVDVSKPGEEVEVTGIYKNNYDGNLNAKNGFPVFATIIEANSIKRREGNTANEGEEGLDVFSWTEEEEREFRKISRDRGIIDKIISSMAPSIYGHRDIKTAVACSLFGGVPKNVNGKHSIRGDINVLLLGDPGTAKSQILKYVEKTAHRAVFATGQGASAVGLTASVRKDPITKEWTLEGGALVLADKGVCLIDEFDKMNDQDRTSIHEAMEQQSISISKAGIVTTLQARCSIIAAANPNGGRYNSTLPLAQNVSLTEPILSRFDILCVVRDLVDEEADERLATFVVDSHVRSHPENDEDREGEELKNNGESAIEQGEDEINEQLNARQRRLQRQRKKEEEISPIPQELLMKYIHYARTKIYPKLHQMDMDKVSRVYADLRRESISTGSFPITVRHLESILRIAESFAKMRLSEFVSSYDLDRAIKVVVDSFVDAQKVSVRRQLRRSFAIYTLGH

Assays:
Assay in all cases: co-IP
[1] = biological target: T1, Spt6-3XFLAG (wild-type Spt6 with a C-terminal 3XFLAG epitope tag) (S. cerevisiae) (UniProt P23615)
T1 sequence: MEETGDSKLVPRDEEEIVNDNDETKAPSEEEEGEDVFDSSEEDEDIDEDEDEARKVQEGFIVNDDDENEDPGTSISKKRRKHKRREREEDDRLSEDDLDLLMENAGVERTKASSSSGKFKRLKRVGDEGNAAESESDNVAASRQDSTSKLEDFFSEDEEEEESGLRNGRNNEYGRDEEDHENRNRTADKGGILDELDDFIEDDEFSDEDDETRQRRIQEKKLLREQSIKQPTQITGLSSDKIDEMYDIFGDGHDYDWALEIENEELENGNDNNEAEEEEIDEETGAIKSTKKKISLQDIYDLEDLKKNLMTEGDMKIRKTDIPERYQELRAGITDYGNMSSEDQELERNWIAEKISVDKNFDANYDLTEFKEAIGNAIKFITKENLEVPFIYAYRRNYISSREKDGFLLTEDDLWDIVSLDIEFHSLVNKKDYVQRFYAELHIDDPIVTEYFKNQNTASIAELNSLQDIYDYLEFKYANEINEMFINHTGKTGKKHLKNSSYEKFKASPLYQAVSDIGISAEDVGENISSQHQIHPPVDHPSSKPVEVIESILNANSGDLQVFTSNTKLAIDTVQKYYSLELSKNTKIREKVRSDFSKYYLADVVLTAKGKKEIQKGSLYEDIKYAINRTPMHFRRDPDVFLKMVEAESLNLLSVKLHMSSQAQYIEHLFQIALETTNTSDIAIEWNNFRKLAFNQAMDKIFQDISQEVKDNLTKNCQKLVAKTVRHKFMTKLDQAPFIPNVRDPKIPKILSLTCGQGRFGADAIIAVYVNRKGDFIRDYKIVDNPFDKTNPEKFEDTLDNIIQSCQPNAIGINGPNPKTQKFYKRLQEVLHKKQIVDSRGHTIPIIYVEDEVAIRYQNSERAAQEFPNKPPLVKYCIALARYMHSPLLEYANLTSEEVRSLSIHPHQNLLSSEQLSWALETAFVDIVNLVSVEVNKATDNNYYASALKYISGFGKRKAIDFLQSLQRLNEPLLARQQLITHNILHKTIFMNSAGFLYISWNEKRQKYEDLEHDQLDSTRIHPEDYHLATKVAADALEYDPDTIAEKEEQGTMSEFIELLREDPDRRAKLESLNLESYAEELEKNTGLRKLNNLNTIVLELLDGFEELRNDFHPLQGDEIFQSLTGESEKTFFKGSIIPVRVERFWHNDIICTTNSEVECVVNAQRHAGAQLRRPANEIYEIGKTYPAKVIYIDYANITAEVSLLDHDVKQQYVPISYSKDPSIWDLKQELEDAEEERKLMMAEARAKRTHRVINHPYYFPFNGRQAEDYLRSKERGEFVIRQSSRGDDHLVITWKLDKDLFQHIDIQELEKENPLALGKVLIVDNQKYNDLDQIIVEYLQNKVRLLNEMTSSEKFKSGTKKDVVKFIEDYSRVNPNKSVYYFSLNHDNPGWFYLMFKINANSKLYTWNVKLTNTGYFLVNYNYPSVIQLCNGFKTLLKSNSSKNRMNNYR

Mcm2-V5 (S. cerevisiae) = Mcm2-V5 (S. cerevisiae) (UniProt P29469)
Mcm4-V5 (S. cerevisiae) = biological target: T2, Mcm4-V5 (S. cerevisiae) (UniProt P30665)
T2 sequence: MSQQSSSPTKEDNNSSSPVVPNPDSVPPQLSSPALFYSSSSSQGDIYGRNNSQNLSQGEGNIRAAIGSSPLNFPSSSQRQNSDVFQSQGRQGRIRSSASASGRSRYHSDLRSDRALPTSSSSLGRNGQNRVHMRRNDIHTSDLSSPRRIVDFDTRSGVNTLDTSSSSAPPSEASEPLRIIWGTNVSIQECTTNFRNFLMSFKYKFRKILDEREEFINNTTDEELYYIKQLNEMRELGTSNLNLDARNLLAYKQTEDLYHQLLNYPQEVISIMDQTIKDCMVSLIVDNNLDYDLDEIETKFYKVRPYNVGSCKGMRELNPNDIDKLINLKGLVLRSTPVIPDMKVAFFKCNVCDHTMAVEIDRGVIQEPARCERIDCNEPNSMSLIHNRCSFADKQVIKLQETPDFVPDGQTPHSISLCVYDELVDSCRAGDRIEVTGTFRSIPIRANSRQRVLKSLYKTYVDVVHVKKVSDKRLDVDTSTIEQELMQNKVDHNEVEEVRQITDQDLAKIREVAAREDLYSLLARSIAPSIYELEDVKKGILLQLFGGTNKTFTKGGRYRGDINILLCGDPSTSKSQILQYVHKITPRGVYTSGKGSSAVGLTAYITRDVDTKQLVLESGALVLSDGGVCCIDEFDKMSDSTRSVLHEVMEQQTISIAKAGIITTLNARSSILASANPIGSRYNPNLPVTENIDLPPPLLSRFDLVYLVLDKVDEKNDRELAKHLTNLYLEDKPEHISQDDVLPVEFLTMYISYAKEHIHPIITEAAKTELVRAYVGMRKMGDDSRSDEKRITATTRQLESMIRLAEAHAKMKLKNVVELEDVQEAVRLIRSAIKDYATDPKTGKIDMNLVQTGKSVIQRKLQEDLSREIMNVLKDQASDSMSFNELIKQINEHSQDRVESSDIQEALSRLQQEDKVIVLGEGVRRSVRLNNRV

[2] = biological target: T3, 3X-FLAG-Spt6 (wild-type Spt6 with an N-terminal 3XFLAG epitope tag) (S. cerevisiae) (UniProt P23615)
T3 sequence: T1 sequence

[3] = biological target: T1, Spt6-3XFLAG (wild-type Spt6 with a C-terminal 3XFLAG epitope tag) (S. cerevisiae); remark: listed apart in the source

binding [1]: binds
Molecule: Mcm2-V5 (from UniProt P29469 1-868)

binding (Mcm2-V5 (S. cerevisiae)): binds | binding (Mcm4-V5 (S. cerevisiae)): binds
B1: Spt6-3XFLAG (wild-type Spt6 with a C-terminal 3XFLAG epitope tag) (protein, UniProt P23615 1-1451)
chain: T1 sequence

binding [2]: binds | binding [3]: binds
B2: Mcm4-V5 (protein, UniProt P30665 1-933)
chain: T2 sequence
